The values that follow come from PubChem BioAssay AID1487 (National Center for Advancing Translational Sciences (NCATS), 2009).

A short description of the assay: qHTS Assay for Modulators of Lamin A Splicing. To be noted: HeLa LMNA splicing GFP/RFP minigene ratio, 48 h. In outline:
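Read-out is the ratio of GFP to DsRed2 object intensity, acquired by 488 nm laser-scanning cytometry on HeLa lamin A-EGFP minigene reporter cells. Compound incubation 48 hrs at 37 °C in Opti-MEM with 2% FBS; DMSO 0.5% final.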

Setting [1] is: measured here: RFP viability control channel.
[2] abbreviates: measured here: GFP splicing reporter channel.

This is one part of the list. Further columns of the screen follow, without active or inactive calls. The list favours compounds with an active or inconclusive main result. Words in brackets tell the shape of the fitted curve; partial curves, single points and poor fits give uncertain potencies.

As a reminder, the AC50 is the concentration at which the activity in the assay is half-maximal. On to `Cc1ccc(N2C(=O)c3ccccc3C2C(=O)c2ccc(O)cc2O)cc1` (configuration not stated), for which, under setting [1], the AC50 was 14.1 µM [rising, partial curve]. Consider `Cc1c(NC(=O)Nc2cccs2)cccc1[N+](=O)[O-]`, for which the AC50 is 12.6 µM [falling, single point] under setting [2] and 12.6 µM [falling, single point] under setting [1]. Turning to `Cc1ccc(-n2ncc(C(=O)NCc3cccs3)c2C2CCN(C(=O)OC(C)(C)C)CC2)c(C)c1`, the AC50 under setting [1] was 11.2 µM [rising, single point].

For the compound `CSc1nc2ccc(NC(=O)c3ccc(=O)n(C)n3)cc2s1`, the AC50 under setting [1] was 35.5 µM [falling, single point].

Turning to `Cc1cc(C)n(CCc2nc(-c3ccc(-c4ccccc4)cc3)cs2)n1`, the AC50 under setting [1] is 14.1 µM [rising, partial curve]. Turning to `Cc1cccc2cc(CN(Cc3ccco3)S(=O)(=O)c3ccc4c(c3)OCCO4)c(=O)[nH]c12`, the AC50 runs as follows: under setting [2], 10 µM [rising, partial curve]; under setting [1], 12.6 µM [rising, partial curve]. On to `CCN(CC)CCOC(=O)c1cccc(Br)c1`, for which the AC50 under setting [1] is 0.0112 µM [falling, full curve, poor fit].

Consider `COc1ccc(-c2cn3c(C)c(C(=O)Nc4cc(NC(C)=O)ccc4OC)sc3n2)cc1`, for which, under setting [1], the AC50 is 5.62 µM [rising, partial curve].

In the case of `CCC(c1nnnn1Cc1ccco1)N(Cc1ccccc1OC)Cc1cc2cc(C)ccc2[nH]c1=O` (configuration not stated), the AC50 under setting [2] was 7.94 µM [rising, partial curve]. In the case of `O=c1cc(O)c2sc3nc(-c4cccnc4)cc(C(F)(F)F)c3c2[nH]1`, the AC50 under setting [1] is 1.12 µM [rising, partial curve, poor fit].

`OCC(CO)NC1C[C@](O)(CO)[C@@H](O)[C@H](O)[C@H]1O` (some centres not stated): the AC50 reads like this: under setting [2], 1.26 µM [falling, single point]; under setting [1], 11.2 µM [falling, single point]. `CCn1c(CNc2ccc(Cl)cc2)nnc1SCc1ccc(Cl)cc1`: under setting [1], the AC50 was 35.5 µM [rising, single point].

Consider `COc1cccc(C(=O)Nc2cccc(C(=O)OCc3cc(=O)n4nc(C(C)C)sc4n3)c2)c1`, for which the concentration at half-maximal activity (AC50) by setting is: under setting [2], 0.0794 µM [falling, full curve, poor fit]; under setting [1], 0.0355 µM [falling, full curve, poor fit]. As for `CC(C)C(C(=O)Nc1nccs1)c1ccc(Cl)cc1` (configuration not stated), the AC50 under setting [1] is 11.2 µM [rising, partial curve, poor fit]. `CCCC(CCC)C(=O)Nc1ccc2c(c1)N(C(=O)CCN1CCN(C)CC1)c1ccccc1CC2`: the half-maximal activity concentration (AC50) under setting [2] was 0.447 µM [falling, single point].

Consider `CCn1c2ccccc2c2cc(NC(=O)c3ccc(C)c([N+](=O)[O-])c3)ccc21`, for which the AC50 was 11.2 µM [rising, single point] under setting [2] and 11.2 µM [rising, partial curve] under setting [1].

Regarding `c1ccc2c3c([nH]c2c1)-c1[nH]ncc1CC3`, the AC50 under setting [1] was 5.62 µM [rising, partial curve, poor fit]. As for `CCn1c(CSc2nc3ccccc3s2)nnc1SCC(=O)OC(C)(C)C`, the AC50 under setting [1] was 31.6 µM [rising, single point].

With `CC1CN=C2C(C(=O)Nc3ccccc3)=C(O)CC(c3ccccc3)N21` (configuration not stated), under setting [1], the concentration at half-maximal activity (AC50) is 35.5 µM [falling, single point]. Still for that read-out and setting: under `CC(C)Cc1csc(NC(=O)c2ccc(F)cc2)c1C(=O)O` stands 35.5 µM [rising, single point]. On to `CN(c1ccc(C(=O)NCc2ccncc2)cc1)S(C)(=O)=O`, for which the AC50 under setting [2] was 22.4 µM [rising, single point] and the AC50 under setting [1] was 25.1 µM [rising, single point]. As for `CC1(C)SC(=S)N(NC(=O)Nc2cccc3ccccc23)C1N(O)C(=O)Nc1ccccc1` (configuration not stated), the AC50 by setting is: under setting [2], 11.2 µM [rising, single point]; under setting [1], 20 µM [rising, single point]. In the case of `O=C(NCc1ccccn1)c1ccc(-c2ccccc2)cc1`, the half-maximal activity concentration (AC50) under setting [1] is 1.26 µM [falling, partial curve, poor fit]. Take `COc1ccc(C(=O)NCC(=O)OCC(=O)Nc2sccc2C#N)cc1OC`: the AC50 under setting [1] is 0.0112 µM [falling, full curve]. Still for that read-out and setting: under `Brc1ccc(CSc2nnc(Cc3c[nH]c4ccccc34)o2)cc1` stands 15.8 µM [rising, single point]. Regarding `CC1Cc2ccccc2N1C(=O)Cn1nnc(-c2ccccc2NC(=O)C2CCC2)n1` (configuration not stated), under setting [1], the AC50 was 35.5 µM [rising, single point].

For `COc1cc(C(=O)Sc2ccc(Cl)cc2)cc(OC)c1OC`, the AC50 was 14.1 µM [falling, partial curve] under setting [2] and 17.8 µM [falling, partial curve] under setting [1].

Regarding `CCOC(=O)C(=O)Nc1sc(C(=O)N(CC)CC)c(C)c1C#N`, under setting [1], the AC50 was 35.5 µM [falling, single point]. As to `Cc1cc(-c2csc(NC(=O)c3ccc(C#N)cc3)n2)c(C)n1Cc1ccco1`, the AC50 reads like this: under setting [2], 22.4 µM [rising, single point]; under setting [1], 31.6 µM [rising, single point]. Take `CC1=C(c2ccc(C)c(C)c2)S(=O)(=O)N=C1N1CCC(C(=O)NCc2ccc(C)o2)CC1`: the AC50 is 0.00282 µM [falling, full curve, poor fit] under setting [2] and 0.00891 µM [falling, full curve] under setting [1]. With `Cc1c(C(=O)Nc2cnccn2)oc2ccccc12`, the AC50 under setting [1] is 10 µM [rising, partial curve, poor fit]. As to `CCOc1ccc(-c2nc(C#N)c(NCCCOC)o2)cc1`, the AC50 under setting [1] was 35.5 µM [rising, single point]. On the same count and under the same terms, the value for `O=S(=O)(Cc1cc(-c2ccccc2)no1)c1ccccc1` was 0.00562 µM [falling, full curve, poor fit]. `CC(=O)c1cccc(NC(=O)CCCOc2ccc(C)cc2)c1`: the AC50 under setting [2] is 12.6 µM [rising, single point]. In the case of `COc1ccccc1-c1cncnc1N(C)Cc1ccco1`, under setting [1], the AC50 is 25.1 µM [falling, single point]. `Cc1c(NC(=O)/C(C#N)=C/c2ccc(-c3cc(Cl)ccc3Cl)o2)c(=O)n(-c2ccccc2)n1C`: the AC50 is 17.8 µM [falling, single point] under setting [2] and 11.2 µM [falling, partial curve, poor fit] under setting [1].
